PubChem BioAssay AID1259254 – NCATS – 2017

- Assay: 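Gene knock-downs that lead to re-replication, shown by excess G2 DNA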 (primary screen)
- System: human HCT116 colorectal cancer cells
- Reagent: single siRNA against human genes
- Time to read-out: 3 days
- Measurement: 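Nuclei stained with Hoechst and imaged; cell-cycle phase assigned by DNA content; G2 share scaled per plate, non-targeting siRNA 0%, GMNN siRNA 100%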
- Scale: G2 robust z-score and G2 cells, % of GMNN control: higher = more G2 cells, more excess DNA replication; raw share of cells in G2: higher = larger share of cells with G2 DNA content
- Hit rule: 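Active siRNAs have a G2 robust z of 5 or more median absolute deviations over the median, which in these data means about 38% or higher of GMNN control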
This is a random part of about 59,000 deposited reagents. Of all reagents, about 1,550 (2.6%) are marked active. 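G2 share is only a proxy for re-replication; each gene was hit by three separate siRNAs, and active genes were retested.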 Raw values are not corrected between plates. The numbers tell different reagents against one gene apart. Reagent sequences are not shown. The record does not give: the amount of reagent.

target | reagent | G2 robust z-score | G2 cells, % of GMNN control | raw share of cells in G2 (%) | Outcome
LPAR5 (lysophosphatidic acid receptor 5) | 1 | 6.64 | 49.7 | 23.6 | active
LPAR5 (lysophosphatidic acid receptor 5) | 2 | 0.961 | 9.73 | 7.92 | inactive
LPAR5 (lysophosphatidic acid receptor 5) | 3 | -0.767 | -2.43 | 2.52 | inactive
USP42 (ubiquitin specific peptidase 42) | 1 | -0.788 | -2.58 | 4.51 | inactive
USP42 (ubiquitin specific peptidase 42) | 2 | -1.49 | -7.54 | 1.99 | inactive
USP42 (ubiquitin specific peptidase 42) | 3 | -0.166 | 1.8 | 4.93 | inactive
KYNU (kynureninase) | 1 | 0.102 | 3.69 | 6.03 | inactive
KYNU (kynureninase) | 2 | 3.55 | 28 | 15.1 | inactive
KYNU (kynureninase) | 3 | -0.0147 | 2.86 | 5.84 | inactive
SLC46A2 | 1 | 1.4 | 12.8 | 11 | inactive
SLC46A2 | 2 | -0.3 | 0.857 | 4.54 | inactive
SLC46A2 | 3 | -0.567 | -1.02 | 3.99 | inactive
GDPGP1 (GDP-D-glucose phosphorylase 1) | 1 | 0.0418 | 3.26 | 4.89 | inactive
GDPGP1 (GDP-D-glucose phosphorylase 1) | 2 | 3.1 | 24.8 | 14.2 | inactive
GDPGP1 (GDP-D-glucose phosphorylase 1) | 3 | 0.506 | 6.53 | 7.43 | inactive
CAPS (calcyphosine) | 1 | 1.47 | 13.3 | 8.95 | inactive
CAPS (calcyphosine) | 2 | 3.83 | 29.9 | 15.7 | inactive
CAPS (calcyphosine) | 3 | -1.31 | -6.25 | 2.59 | inactive
THRAP3P1 (THRAP3 pseudogene 1) | 1 | 1.11 | 10.8 | 7.72 | inactive
THRAP3P1 (THRAP3 pseudogene 1) | 2 | -0.683 | -1.84 | 2.79 | inactive
THRAP3P1 (THRAP3 pseudogene 1) | 3 | 2.43 | 20.1 | 13.1 | inactive
NEXN (nexilin F-actin binding protein) | 1 | -0.337 | 0.597 | 3.11 | inactive
NEXN (nexilin F-actin binding protein) | 2 | -0.649 | -1.6 | 3.41 | inactive
NEXN (nexilin F-actin binding protein) | 3 | -0.0513 | 2.61 | 3.82 | inactive
STAB1 (stabilin 1) | 1 | -0.551 | -0.911 | 3.22 | inactive
STAB1 (stabilin 1) | 2 | 3.02 | 24.2 | 16.8 | inactive
STAB1 (stabilin 1) | 3 | -0.0843 | 2.37 | 4.33 | inactive
LAMA4 (laminin subunit alpha 4) | 1 | -0.465 | -0.304 | 3.34 | inactive
LAMA4 (laminin subunit alpha 4) | 2 | 0.772 | 8.4 | 8.78 | inactive
LAMA4 (laminin subunit alpha 4) | 3 | -0.0618 | 2.53 | 4.03 | inactive
CATSPERG (catsper channel auxiliary subunit gamma) | 1 | 0.954 | 9.68 | 8.16 | inactive
CATSPERG (catsper channel auxiliary subunit gamma) | 2 | -0.552 | -0.918 | 4.02 | inactive
CATSPERG (catsper channel auxiliary subunit gamma) | 3 | -0.186 | 1.66 | 3.56 | inactive
HOXA13 (homeobox A13) | 1 | 0.237 | 4.63 | 6.73 | inactive
HOXA13 (homeobox A13) | 2 | -0.135 | 2.02 | 6.45 | inactive
HOXA13 (homeobox A13) | 3 | 0.325 | 5.26 | 6.13 | inactive
PRAC1 (PRAC1 small nuclear protein) | 1 | -0.433 | -0.0764 | 4.08 | inactive
PRAC1 (PRAC1 small nuclear protein) | 2 | 10 | 73.5 | 25.3 | active
PRAC1 (PRAC1 small nuclear protein) | 3 | 0.108 | 3.73 | 3.54 | inactive
SMYD4 (SET and MYND domain containing 4) | 1 | 0.709 | 7.95 | 5.83 | inactive
SMYD4 (SET and MYND domain containing 4) | 2 | 0.1 | 3.67 | 4.44 | inactive
SMYD4 (SET and MYND domain containing 4) | 3 | 1.79 | 15.6 | 8.99 | inactive
RBM33 (RNA binding motif protein 33) | 1 | -0.595 | -1.22 | 3.17 | inactive
RBM33 (RNA binding motif protein 33) | 2 | -0.326 | 0.676 | 3.19 | inactive
RBM33 (RNA binding motif protein 33) | 3 | 1.61 | 14.3 | 7.29 | inactive
SELP (selectin P) | 1 | 3.22 | 25.6 | 14.3 | inactive
SELP (selectin P) | 2 | -0.771 | -2.46 | 3.7 | inactive
SELP (selectin P) | 3 | 1.42 | 13 | 8.25 | inactive
SFRP5 (secreted frizzled related protein 5) | 1 | 2.72 | 22.1 | 14.4 | inactive
SFRP5 (secreted frizzled related protein 5) | 2 | 0.0828 | 3.55 | 5.62 | inactive
SFRP5 (secreted frizzled related protein 5) | 3 | 3.2 | 25.5 | 12.6 | inactive
HABP2 (hyaluronan binding protein 2) | 1 | -1.39 | -6.81 | 3.18 | inactive
HABP2 (hyaluronan binding protein 2) | 2 | 0.317 | 5.2 | 6.75 | inactive
HABP2 (hyaluronan binding protein 2) | 3 | -0.00771 | 2.91 | 5 | inactive

The list goes on; the last 10 above are carried over.
target | reagent | G2 robust z-score | G2 cells, % of GMNN control | raw share of cells in G2 (%) | Outcome
RBM33 (RNA binding motif protein 33) | 3 | 1.61 | 14.3 | 7.29 | inactive
SELP (selectin P) | 1 | 3.22 | 25.6 | 14.3 | inactive
SELP (selectin P) | 2 | -0.771 | -2.46 | 3.7 | inactive
SELP (selectin P) | 3 | 1.42 | 13 | 8.25 | inactive
SFRP5 (secreted frizzled related protein 5) | 1 | 2.72 | 22.1 | 14.4 | inactive
SFRP5 (secreted frizzled related protein 5) | 2 | 0.0828 | 3.55 | 5.62 | inactive
SFRP5 (secreted frizzled related protein 5) | 3 | 3.2 | 25.5 | 12.6 | inactive
HABP2 (hyaluronan binding protein 2) | 1 | -1.39 | -6.81 | 3.18 | inactive
HABP2 (hyaluronan binding protein 2) | 2 | 0.317 | 5.2 | 6.75 | inactive
HABP2 (hyaluronan binding protein 2) | 3 | -0.00771 | 2.91 | 5 | inactive
SSRP1 (structure specific recognition protein 1) | 1 | 9.32 | 68.6 | 28.8 | active
SSRP1 (structure specific recognition protein 1) | 2 | 3.3 | 26.2 | 13.5 | inactive
SSRP1 (structure specific recognition protein 1) | 3 | -0.899 | -3.36 | 2.85 | inactive
GSTA4 (glutathione S-transferase alpha 4) | 1 | -0.803 | -2.68 | 4.66 | inactive
GSTA4 (glutathione S-transferase alpha 4) | 2 | 1.12 | 10.8 | 8.18 | inactive
GSTA4 (glutathione S-transferase alpha 4) | 3 | -0.174 | 1.75 | 5.68 | inactive
TMC5 (transmembrane channel like 5) | 1 | 0.546 | 6.81 | 7.27 | inactive
TMC5 (transmembrane channel like 5) | 2 | -0.701 | -1.97 | 3.44 | inactive
TMC5 (transmembrane channel like 5) | 3 | -0.109 | 2.2 | 2.98 | inactive
CENPU (centromere protein U) | 1 | 3 | 24.1 | 14.4 | inactive
CENPU (centromere protein U) | 2 | -0.255 | 1.17 | 4.82 | inactive
CENPU (centromere protein U) | 3 | -1.15 | -5.15 | 0.968 | inactive
WHR1 (winged helix repair factor 1) | 1 | -1.29 | -6.1 | 3.69 | inactive
WHR1 (winged helix repair factor 1) | 2 | -0.0796 | 2.41 | 4.45 | inactive
WHR1 (winged helix repair factor 1) | 3 | -1.14 | -5.03 | 3.36 | inactive
OLIG1 (oligodendrocyte transcription factor 1) | 1 | -0.351 | 0.495 | 4.67 | inactive
OLIG1 (oligodendrocyte transcription factor 1) | 2 | -0.876 | -3.2 | 3.6 | inactive
OLIG1 (oligodendrocyte transcription factor 1) | 3 | -0.0252 | 2.79 | 6.97 | inactive
OR2T1 (olfactory receptor family 2 subfamily T member 1) | 1 | 1.16 | 11.1 | 7.18 | inactive
OR2T1 (olfactory receptor family 2 subfamily T member 1) | 2 | 2.57 | 21 | 12.3 | inactive
OR2T1 (olfactory receptor family 2 subfamily T member 1) | 3 | 0.652 | 7.55 | 7.21 | inactive
RLIG1 (RNA 5'-phosphate and 3'-OH ligase 1) | 1 | -0.298 | 0.871 | 4.45 | inactive
RLIG1 (RNA 5'-phosphate and 3'-OH ligase 1) | 2 | 2.82 | 22.8 | 10.2 | inactive
RLIG1 (RNA 5'-phosphate and 3'-OH ligase 1) | 3 | 0.465 | 6.24 | 4.9 | inactive
RARB (retinoic acid receptor beta) | 1 | -0.14 | 1.98 | 6.35 | inactive
RARB (retinoic acid receptor beta) | 2 | -0.141 | 1.98 | 5.22 | inactive
RARB (retinoic acid receptor beta) | 3 | -0.205 | 1.53 | 4.46 | inactive
VARS1 (valyl-tRNA synthetase 1) | 1 | 0.103 | 3.69 | 7.16 | inactive
VARS1 (valyl-tRNA synthetase 1) | 2 | 2.86 | 23.1 | 12.1 | inactive
VARS1 (valyl-tRNA synthetase 1) | 3 | 0.0732 | 3.48 | 5.56 | inactive
CCDC93 (CCC complex scaffolding subunit CCDC93) | 1 | -1.42 | -7 | 1.1 | inactive
CCDC93 (CCC complex scaffolding subunit CCDC93) | 2 | 0.547 | 6.82 | 7.14 | inactive
CCDC93 (CCC complex scaffolding subunit CCDC93) | 3 | -0.69 | -1.89 | 2.57 | inactive
